Drawing on PubChem BioAssay AID901 (National Center for Advancing Translational Sciences (NCATS), 2007), this text covers AC50 for 67 compounds.

SMILES strings stand for the structures. This is one part of the list. The main result of the screen is listed elsewhere. These columns were measured beside it and carry no call. Compounds called inactive in the main read-out are mostly missing here. Words in brackets tell the shape of the fitted curve; partial curves, single points and poor fits give uncertain potencies.

The AC50 is the midpoint of the concentration-response curve, whichever way the signal moves.

The experiment is described as follows: qHTS Assay for Identifying the Cell-Membrane Permeable IMPase Inhibitors. The settings on record: CHO-M1 cells, IP1 accumulation, HTRF TR-FRET ratio; measured here: donor channel 620 nm AC50. (Quantitative high-throughput screening tests each substance at several concentrations.)
Turning to `CC1CCCC(C)N1C(=O)COc1ccc(-c2nnco2)cc1` (configuration not stated), the AC50 was 0.02 µM [rising, partial curve, poor fit]. In the case of `O=S(=O)(c1ccccc1)N1CCC(N2CCCCCC2)CC1` it was 31.6 µM [falling, single point]; in that of `O=C(O)C1C2C=CC(C3CC23)C1C(=O)N1CCc2ccccc21` (configuration not stated), 5.01 µM [rising, full curve]; in that of `Cc1ccc(C)c(NC(=O)Cn2c(=O)n(CCCS(=O)(=O)C3CCCCC3)c(=O)c3ccccc32)c1`, 0.0891 µM [falling, single point]. The result for `C/C(=N\NS(=O)(=O)c1ccc(Cl)c([N+](=O)[O-])c1)c1ccc(C)o1` reads 7.94 µM [falling, full curve]; that for `COC(=O)c1ccc2c(=O)n(NC(C)=O)c(=S)[nH]c2c1`, 0.0224 µM [falling, full curve, poor fit]; that for `O=C(C1CCCCC1)N1CCN(C(=O)C2CCCCC2)CC1`, 1 µM [rising, full curve, poor fit].

On to `CCOC(=O)c1csc(NC(=O)c2ccc(OC)c(OC)c2)n1`, for which the AC50 is 15.8 µM [rising, single point]. As to `COCc1nnc(NC(=O)CC(C)C)s1`, the AC50 was 0.2 µM [rising, single point].

On to `CC(=O)N1CCc2cc(S(=O)(=O)CCC(=O)O)ccc21`, for which the AC50 is 0.631 µM [rising, single point].

Take `Cc1cccc(OCCCCc2c(C)n[nH]c2C)c1C`: the AC50 was 3.16 µM [rising, single point]. In the case of `O=C(CCC(=O)Nc1ccccc1)N/N=C/c1ccncc1` it was 3.16 µM [falling, single point]; in that of `COC(=O)c1ccc(Nc2nnc(-c3ccc(C)c(S(=O)(=O)N4CCN(C)CC4)c3)c3ccccc23)cc1`, 35.5 µM [rising, single point]; in that of `O=C(NCC1CCCO1)NC1CCCCC1` (configuration not stated), 0.2 µM [falling, full curve]. For the compound `CCOc1ccccc1NC(=O)CSc1nc(N)c(C#N)cc1C#N`, the AC50 is 31.6 µM [rising, single point]. In the case of `COc1ccc(-c2c3c(=O)n(C)c(=O)n(C)c3cn2-c2cccc(OC)c2)cc1` it was 22.4 µM [falling, single point]; in that of `COC(=O)c1cccc(-n2c(CCC(=O)O)ccc2-c2ccc(OC)cc2)c1`, 31.6 µM [rising, single point].

Consider `CCCCNC(=O)N1CCOCCOCCN(C(=O)NCCCC)CCOCCOCC1`, for which the AC50 is 3.98 µM [rising, single point].

`CCC(Sc1nc2ccccc2[nH]1)C(=O)Nc1cc(C)on1` (configuration not stated): the AC50 was 0.501 µM [falling, single point]. As for `Cn1c(CN2CCN(c3cccc(Cl)c3)CC2)nc2ccccc21`, the AC50 was 3.16 µM [falling, partial curve]. The result for `CCOC(=O)c1c(-c2ccc(Br)cc2)csc1NC(=O)c1ccccc1F` reads 0.224 µM [falling, full curve]; that for `COC(=O)c1ccccc1NC(=O)c1ccc(COc2ccccc2Cl)o1`, 0.00447 µM [rising, full curve, poor fit]. In the case of `COC(=O)C1(Cc2ccccc2)NC(c2ccccc2C)C2C(=O)N(c3ccc4c(c3)OCO4)C(=O)C21` (configuration not stated) it was 0.126 µM [rising, single point]; in that of `Cc1cccc(N(CC(=O)NC2CCCCC2)C(=O)CCCC(=O)Nc2ccccn2)c1`, 0.631 µM [rising, partial curve, poor fit].

Take `Cc1cc(=O)[nH]c(SCCOc2ccc3c(c2)CCC3)n1`: the AC50 was 12.6 µM [rising, single point]. The result for `Cc1ccc(-n2c(SCC(=O)Nc3ccc4c(c3)OCO4)nnc2-c2ccoc2C)cc1` reads 0.0398 µM [rising, full curve, poor fit]; that for `CCc1ccccc1-n1c(SCC(=O)Nc2ccc3c(c2)OCCO3)nc2[nH]ncc2c1=O`, 0.0158 µM [falling, full curve]; that for `CSc1ccccc1NC(=O)CSc1nnnn1-c1ccccc1SC`, 31.6 µM [rising, single point].

With `CCN(CC)c1nc2n(c(=O)n1)CCO2`, the AC50 was 0.00501 µM [falling, full curve, poor fit]. In the case of `COC(=O)c1ccc(OCC(O)CN(CCO)CCO)cc1` (configuration not stated) it was 2 µM [falling, partial curve, poor fit]; in that of `CC1(C)CC(=O)c2cc3c(nc2C1)CC(C)(C)CC3=O`, 0.0282 µM [falling, full curve]. In the case of `COc1cccc(NC(=O)CSc2ncnc3c2oc2ccccc23)c1` it was 31.6 µM [rising, single point]; in that of `O=c1c2[nH]c3cccc(Cl)c3c2ncn1CCN1CCCCC1`, 0.794 µM [falling, full curve]. The result for `CCOc1ccccc1NC(=O)c1c(NC(=O)c2ccccc2)sc2c1CCCC2` reads 0.282 µM [falling, full curve]; that for `Cc1ccc2c(c1)nnn2C1CCN(CC(=O)c2ccc(Cl)cc2)CC1`, 2.82 µM [rising, single point]; that for `CC(C)CCn1c(SCC#N)nc2c(sc3ccccc32)c1=O`, 25.1 µM [rising, partial curve].

As to `CCOC(=O)C1C(=O)OC2(CCOC(C)(C)C2)C1C(=O)OCC` (configuration not stated), the AC50 is 0.251 µM [falling, partial curve, poor fit].

For the compound `Cc1cc(NS(=O)(=O)c2ccc(NC(=O)CCCC(=O)O)cc2)nc(C)n1`, the half-maximal activity concentration (AC50) is 0.158 µM [falling, partial curve]. With `CCn1cc(CNC(=O)c2cc(-c3ccc(C)c(C)c3)nc3ccccc23)c(C)n1`, the AC50 was 31.6 µM [rising, single point]. On to `O=C(COc1ccccc1Cl)NCCc1ccc2c(c1)OCCO2`, for which the concentration at half-maximal activity (AC50) was 0.00562 µM [falling, full curve, poor fit]. The result for `COc1cccc(NC(=O)CSc2nc3ccccc3c(=O)n2CCCC(=O)N2CCCC2)c1` reads 0.0126 µM [rising, full curve, poor fit]; that for `Cc1ccc(N2CC(C(=O)Nc3ccc(N(C)C)cc3)CC2=O)cc1C` (configuration not stated), 0.00501 µM [falling, full curve, poor fit]. In the case of `COc1cc(C)nc(N2CCCC(C(=O)Nc3cc(Cl)ccc3OC)C2)n1` (configuration not stated) it was 5.01 µM [rising, single point]; in that of `CCOCCCNC(=O)C1CCN(S(=O)(=O)N2CCCCC2)CC1`, 5.01 µM [rising, single point]. The result for `COc1cc(S(=O)(=O)N2CCN(c3ccc(F)cc3)CC2)ccc1Cl` reads 0.0501 µM [rising, full curve, poor fit]. For `C(=N\n1cnnc1SCc1ccccc1)/c1ccco1`, the AC50 is 31.6 µM [falling, single point].

In the case of `CCc1c(C)sc(NC(=O)C2CC2c2ccccc2)c1C(N)=O` (configuration not stated), the AC50 was 0.0631 µM [falling, full curve, poor fit]. The result for `CCc1ccc(-c2nc3ccc(Br)cc3c(C(=O)O)c2C)s1` reads 11.2 µM [rising, partial curve]; that for `Cc1ccc(S(=O)(=O)NC(C(=O)Oc2ccc3c(C(F)(F)F)cc(=O)oc3c2)c2ccccc2)cc1` (configuration not stated), 12.6 µM [rising, single point]; that for `Cc1cc(NC(=O)CCSc2nc(-c3ccco3)cc(C(F)(F)F)n2)n(-c2ccccc2)n1`, 0.126 µM [rising, single point]. In the case of `CN(O)/C=C1\C(=O)Nc2ccccc21` it was 31.6 µM [falling, single point]; in that of `CCC(=O)NCCc1c[nH]c2ccccc12`, 5.62 µM [falling, single point]. `Cc1ccc(S(=O)(=O)c2c(N)n(/N=C/c3ccco3)c3nc4ccccc4nc23)cc1`: the AC50 was 0.02 µM [rising, full curve, poor fit]. In the case of `Cn1c(SCc2c(Cl)cccc2Cl)nc(C(F)(F)F)cc1=O` it was 31.6 µM [falling, single point]; in that of `COc1cccc(NC(=O)CSc2nccn2-c2cccc(OC)c2)c1`, 0.0126 µM [rising, full curve, poor fit].

In the case of `Cc1cccc(-c2nc3ccccc3c(=O)n2NC(=S)N(C)C)c1`, the AC50 was 31.6 µM [rising, single point]. In the case of `Cc1ccc(-c2nnc(SCC(=O)N3CCc4ccccc43)o2)cc1`, the AC50 is 11.2 µM [rising, partial curve].

As to `Cc1c(C(=O)O)nnn1-c1ccccc1`, the AC50 was 0.2 µM [falling, full curve, poor fit]. In the case of `CC1CC(C)CN(CCCNC(=O)COc2cc(=O)n(C)c3ccccc23)C1` (configuration not stated) it was 0.251 µM [rising, full curve, poor fit]; in that of `COc1ccc(NS(=O)(=O)c2ccc(NS(=O)(=O)c3ccc4c(c3)OCCO4)cc2)cc1`, 17.8 µM [falling, single point]. The result for `CCOC(=O)Cc1csc(-n2sc3ccccc3c2=O)n1` reads 31.6 µM [rising, single point]; that for `Cc1ccc(S(=O)(=O)N2c3ccccc3NC(=O)CC2C)cc1` (configuration not stated), 35.5 µM [falling, single point]. In the case of `CC(=O)NCC1=C(NC(C)=O)C2CC1C(C)(C)C2C` (configuration not stated), the AC50 is 12.6 µM [falling, partial curve].

For `CC(Oc1ccc(Cl)cc1Cl)C(=O)N(Cc1ccco1)C1CCS(=O)(=O)C1` (configuration not stated), the AC50 was 35.5 µM [falling, partial curve, poor fit]. In the case of `O=C(NCCc1ccccc1)/C(=N\O)c1ccccc1` it was 0.158 µM [falling, single point].

As for `CCN(CC)C(=O)CSc1nc2ncccc2[nH]1`, the AC50 was 0.01 µM [falling, full curve, poor fit]. In the case of `Cc1ccc(S(=O)(=O)N2CCC(C(=O)N[C@H](C(=O)NCc3ccco3)C(C)C)CC2)cc1` it was 2 µM [rising, partial curve].
